PubChem BioAssay AID504791 – Drosophila RNAi Screening Center, 2011

Screen: 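Genes of the fly required for silencing by miRNA, siRNA or endo-siRNA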 (primary screen)
Cell system: Drosophila S2-derived reporter cells
Reagent: long dsRNA against Drosophila genes, about 150-250 ng dsRNA per well (siRNA assay); about 80-120 ng (miRNA assay)
Timing: about 5 days (siRNA assay); about 4 days (miRNA assay)
Conditions: copper sulfate induction of reporters: 25 µM (siRNA assay); 200 mM stated (miRNA assay), 1-2 days before reading
Measured: 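Per-well ratio of Renilla over firefly light, expressed relative to that plate's average ratio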
Call rule: 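a well was a first-pass pick when its plate-scaled ratio rose above 1.5 (siRNA assay) or 1.6 (miRNA assay), or dropped below 0.6; a gene counted only if two separate dsRNAs agreed on retest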
The screen tested about 23,000 reagents; below is an unselected part of those that have a named target and a result. Of all reagents, 199 (0.86%) were called active. 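Plate-scaled ratios behind the calls are not deposited; printed light signals are raw; many rows marked increased or decreased are still called inactive.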 Entries without a mark were called inactive. A plus sign joins genes that one reagent is predicted to hit. Not stated in the record: the direction of the score.

target	amplicon	stable siRNA reporter change	miRNA reporter change	stable assay Renilla, run 1 (luminescence)	stable assay firefly, run 1 (luminescence)
meng (meng-po)	DRSC02134			9860	4.96e5
CG4328	DRSC10410			4008	1.99e5
CG4328	DRSC23146			5908	3.61e5
CG9231	DRSC11054			9657	4.67e5
Chrac-16 (Chromatin accessibility complex 16kD protein)	DRSC20343		reporter ratio lowered past the hit cutoff	6438	5.98e5
CG17290	DRSC06662			6700	4.34e5
Nach	DRSC07478			5654	3.03e5
GstT1 (Glutathione S transferase T1)	DRSC06243			6546	3.47e5
CG10970	DRSC17772			7147	3.84e5
CG13474	DRSC10018			8421	5.62e5
mgr (merry-go-round)	DRSC16099			6808	3.86e5
HemK1 (HemK methyltransferase 1)	DRSC03253			42336	6.32e5
Pal1 + Pdrg1	DRSC06587			5891	4.03e5
CG18336	DRSC06334			6563	3.65e5
mEFTu2 (mitochondrial translation elongation factor Tu 2)	DRSC06163			28984	2.35e6
DNaseII (Deoxyribonuclease II)	DRSC16310			8014	2.97e5
PGAP1 (Post-GPI attachment to proteins 1)	DRSC18286			8123	5.09e5
Tom7 (Translocase of outer membrane 7)	DRSC05135			5407	4.13e5
Tom7 (Translocase of outer membrane 7)	DRSC07113			6231	3.68e5
Lk6 (Lk6 kinase)	DRSC12867			4771	3.24e5
Lk6 (Lk6 kinase)	DRSC16728			7380	5.64e5
CG11857	DRSC14411			6642	3.01e5
sws (swiss cheese)	DRSC18843	reporter ratio raised past the hit cutoff		3611	3.52e5
Eig71Ej	DRSC11157			7068	3.61e5
Tsp42El (Tetraspanin 42El)	DRSC06186			86129	1.66e6
CG2889	DRSC18236			5251	3.73e5
Nsun2 (NOP2-Sun domain family, member 2)	DRSC18662			3615	3.56e5
Pex23 (Peroxin 23)	DRSC10323			8762	3.35e5
Pex23 (Peroxin 23)	DRSC10645			7164	3.96e5
S-Lap4 (Sperm-Leucylaminopeptidase 4)	DRSC10957	reporter ratio lowered past the hit cutoff		5148	5.74e5
spo (spook)	DRSC11127			5652	3.47e5
CG5805	DRSC15878			7817	3.70e5
Su(H) (Suppressor of Hairless)	DRSC03445			7716	4.05e5
Arms (Ankyrin repeat-rich membrane spanning)	DRSC03856			5370	5.12e5
Arms (Ankyrin repeat-rich membrane spanning)	DRSC03857			4886	2.37e5
Arms (Ankyrin repeat-rich membrane spanning)	DRSC04052			93110	1.46e6
Arms (Ankyrin repeat-rich membrane spanning)	DRSC04256			5175	2.40e5
oaf (out at first)	DRSC00831			7965	4.42e5
MsR2 + CG13802 (retired record)	DRSC08336			6499	4.30e5
MsR2 + CG13802 (retired record)	DRSC08337			6383	4.14e5
MsR2 + CG13802 (retired record)	DRSC22440			4584	4.23e5
CG40191	DRSC21041			4615	4.63e5
Rif1 (Rap1 interacting factor 1)	DRSC05593			7820	4.65e5
Cyp12a5 (Cytochrome P450 12a5)	DRSC16621			6954	3.60e5
opa (odd paired)	DRSC12384			6766	4.59e5
opa (odd paired)	DRSC22563			3627	2.50e5
opa (odd paired)	DRSC23152			3636	2.51e5
Spn42De (Serpin 42De)	DRSC05011			7751	4.05e5
CG12325	DRSC06130			7058	3.73e5
Pgd (Phosphogluconate dehydrogenase)	DRSC18697			7607	3.62e5
Obp47b + CG7741	DRSC06330			6596	3.31e5
Dad	DRSC16642	reporter ratio raised past the hit cutoff		17721	3.07e5
c12.1	DRSC18750			5531	4.49e5
Taf4 (TBP-associated factor 4)	DRSC11297			7078	4.06e5
eIF4E5 (eukaryotic translation initiation factor 4E5)	DRSC10975			7211	4.89e5
Rab14	DRSC03403			59310	1.67e6
Eo (Ecdysone oxidase)	DRSC20187			6346	5.49e5
CG30114	DRSC05707			6762	3.73e5
CG7295	DRSC00699			8323	5.05e5
TpnC41C (Troponin C at 41C)	DRSC04916			6459	3.70e5
CG12320	DRSC14498			8570	4.64e5
Cpr100A (Cuticular protein 100A)	DRSC14465			6458	3.65e5
CG5757	DRSC06951			9510	3.11e5
CG11127	DRSC06043			17835	2.37e6
Pgant8 (Polypeptide N-Acetylgalactosaminyltransferase 8)	DRSC10801			7849	3.62e5
CG4830	DRSC15657			5043	3.08e5
CG44098	DRSC12214			4932	4.04e5
CG44098	DRSC12327			6978	3.54e5
Roc1b + Cdc5	DRSC08687			5978	3.51e5
CG9953	DRSC11106			7763	5.07e5
lncRNA:CR30009 (long non-coding RNA:CR30009)	DRSC22952			3639	3.52e5
CG13716	DRSC08325			3736	4.11e5
CG13716	DRSC22815			3340	4.09e5
CG13955	DRSC06443			5450	3.39e5
dome (domeless)	DRSC19583			6727	4.08e5
CG10300	DRSC14225			6191	2.81e5
CG8372	DRSC03086	reporter ratio raised past the hit cutoff		60764	4.33e5
klg (klingon)	DRSC13591			3512	4.13e5
klg (klingon)	DRSC16978			6682	3.31e5
CG2076	DRSC19832			4784	3.74e5
trbd (trabid)	DRSC16494			8283	3.96e5
CG34235 + CG30058 + CG34312	DRSC22142			9003	6.48e5
gogo (golden goal)	DRSC10070			6167	3.70e5
gogo (golden goal)	DRSC10071			6411	3.50e5

Individual results from above.
Result for MsR2 + CG13802 (retired record) [DRSC08337] under “stable assay Renilla, run 1 (luminescence)”: 6383
CG2076 [DRSC19832], stable assay Renilla, run 1 (luminescence) → 4784
Entry for klg (klingon) [DRSC13591] under “stable assay firefly, run 1 (luminescence)”: 4.13e5
Result of DNaseII (Deoxyribonuclease II) [DRSC16310] in “stable assay Renilla, run 1 (luminescence)”: 8014
Rab14 [DRSC03403], stable assay firefly, run 1 (luminescence): 1.67e6
Value for CG17290 [DRSC06662] in “stable assay firefly, run 1 (luminescence)”: 4.34e5
